Measurements from the supplement of paper PMC6411743.
± gives the standard deviation of the averaged measurements. The entries are a selection whose mix differs from that of the whole data set.

Chains of the proteins cited; added tags and fusions are not shown. Lines headed by an entry give the natural chain unless they say otherwise; changes in a name come on top.
UniProt Q5TEU4: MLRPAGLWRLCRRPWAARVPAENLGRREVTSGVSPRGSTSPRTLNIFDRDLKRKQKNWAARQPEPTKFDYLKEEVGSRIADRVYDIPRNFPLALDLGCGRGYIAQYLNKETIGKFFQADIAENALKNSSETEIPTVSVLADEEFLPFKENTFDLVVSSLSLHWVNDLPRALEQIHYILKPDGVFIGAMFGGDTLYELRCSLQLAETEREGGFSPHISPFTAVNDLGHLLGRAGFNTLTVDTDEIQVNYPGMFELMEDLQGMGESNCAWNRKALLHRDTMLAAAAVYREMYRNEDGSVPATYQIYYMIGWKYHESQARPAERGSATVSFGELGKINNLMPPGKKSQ
UniProt Q6P1R4: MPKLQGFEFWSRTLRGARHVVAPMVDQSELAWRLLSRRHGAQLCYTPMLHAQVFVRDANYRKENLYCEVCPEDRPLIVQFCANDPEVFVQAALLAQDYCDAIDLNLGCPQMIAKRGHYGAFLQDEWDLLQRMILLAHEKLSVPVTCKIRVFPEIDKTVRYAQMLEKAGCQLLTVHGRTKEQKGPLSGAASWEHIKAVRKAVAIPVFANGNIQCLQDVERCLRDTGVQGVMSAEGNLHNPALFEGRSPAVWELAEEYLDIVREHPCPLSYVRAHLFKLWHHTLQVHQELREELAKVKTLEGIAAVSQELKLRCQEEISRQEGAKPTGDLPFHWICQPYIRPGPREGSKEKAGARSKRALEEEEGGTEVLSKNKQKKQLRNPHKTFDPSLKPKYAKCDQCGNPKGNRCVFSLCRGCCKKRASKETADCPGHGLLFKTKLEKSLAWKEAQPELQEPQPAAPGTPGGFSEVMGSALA
UniProt Q4VC05, whole entry: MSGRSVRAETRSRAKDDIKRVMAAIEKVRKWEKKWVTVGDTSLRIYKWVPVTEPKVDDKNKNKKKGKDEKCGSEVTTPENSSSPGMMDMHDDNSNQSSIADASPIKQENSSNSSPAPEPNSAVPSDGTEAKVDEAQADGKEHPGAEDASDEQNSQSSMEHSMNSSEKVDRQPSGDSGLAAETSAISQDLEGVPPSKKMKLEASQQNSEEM
UniProt Q5SSJ5: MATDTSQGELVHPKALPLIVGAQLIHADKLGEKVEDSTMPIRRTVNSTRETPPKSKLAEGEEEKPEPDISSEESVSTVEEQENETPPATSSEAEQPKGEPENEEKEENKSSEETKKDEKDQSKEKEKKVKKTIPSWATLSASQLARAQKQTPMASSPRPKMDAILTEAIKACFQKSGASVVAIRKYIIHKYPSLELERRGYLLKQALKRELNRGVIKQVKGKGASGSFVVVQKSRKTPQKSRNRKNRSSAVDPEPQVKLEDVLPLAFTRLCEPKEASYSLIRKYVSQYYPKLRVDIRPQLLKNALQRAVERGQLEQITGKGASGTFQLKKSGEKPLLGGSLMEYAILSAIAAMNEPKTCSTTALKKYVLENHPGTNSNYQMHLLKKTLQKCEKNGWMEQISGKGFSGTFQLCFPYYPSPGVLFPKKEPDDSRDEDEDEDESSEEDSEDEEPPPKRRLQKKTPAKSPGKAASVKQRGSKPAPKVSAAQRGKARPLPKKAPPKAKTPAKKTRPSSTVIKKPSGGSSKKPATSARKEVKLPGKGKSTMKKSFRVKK
UniProt Q9H6K1: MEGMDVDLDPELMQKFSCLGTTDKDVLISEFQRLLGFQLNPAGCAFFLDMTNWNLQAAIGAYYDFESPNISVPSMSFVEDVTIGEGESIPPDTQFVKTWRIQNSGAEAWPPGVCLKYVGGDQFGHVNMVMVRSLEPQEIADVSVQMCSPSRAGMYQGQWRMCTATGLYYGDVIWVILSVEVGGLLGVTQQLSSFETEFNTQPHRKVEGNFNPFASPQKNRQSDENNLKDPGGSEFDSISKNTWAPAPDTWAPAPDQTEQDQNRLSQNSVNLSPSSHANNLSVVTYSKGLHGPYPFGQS
UniProt Q6P2P2: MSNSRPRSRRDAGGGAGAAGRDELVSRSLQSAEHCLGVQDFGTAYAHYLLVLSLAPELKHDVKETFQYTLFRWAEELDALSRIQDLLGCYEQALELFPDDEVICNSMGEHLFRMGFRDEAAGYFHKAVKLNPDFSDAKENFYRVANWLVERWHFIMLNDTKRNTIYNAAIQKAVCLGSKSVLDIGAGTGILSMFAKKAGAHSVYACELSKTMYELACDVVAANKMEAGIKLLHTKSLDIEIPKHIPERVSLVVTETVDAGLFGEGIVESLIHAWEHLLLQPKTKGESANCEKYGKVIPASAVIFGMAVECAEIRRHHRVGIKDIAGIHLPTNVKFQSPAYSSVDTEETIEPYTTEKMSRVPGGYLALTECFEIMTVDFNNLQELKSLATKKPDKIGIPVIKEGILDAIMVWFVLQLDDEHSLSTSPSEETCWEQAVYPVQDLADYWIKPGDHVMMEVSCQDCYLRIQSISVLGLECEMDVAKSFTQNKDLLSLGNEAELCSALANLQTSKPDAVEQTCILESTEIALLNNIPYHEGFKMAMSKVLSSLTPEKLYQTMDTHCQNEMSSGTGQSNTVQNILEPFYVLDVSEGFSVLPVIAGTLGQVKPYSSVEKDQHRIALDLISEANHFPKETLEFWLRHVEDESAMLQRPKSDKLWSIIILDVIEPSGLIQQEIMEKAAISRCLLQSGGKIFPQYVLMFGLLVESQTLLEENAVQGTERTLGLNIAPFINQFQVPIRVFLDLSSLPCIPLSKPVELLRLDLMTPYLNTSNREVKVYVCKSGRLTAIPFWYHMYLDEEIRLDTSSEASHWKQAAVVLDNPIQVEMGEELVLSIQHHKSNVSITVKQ
UniProt Q53HL2: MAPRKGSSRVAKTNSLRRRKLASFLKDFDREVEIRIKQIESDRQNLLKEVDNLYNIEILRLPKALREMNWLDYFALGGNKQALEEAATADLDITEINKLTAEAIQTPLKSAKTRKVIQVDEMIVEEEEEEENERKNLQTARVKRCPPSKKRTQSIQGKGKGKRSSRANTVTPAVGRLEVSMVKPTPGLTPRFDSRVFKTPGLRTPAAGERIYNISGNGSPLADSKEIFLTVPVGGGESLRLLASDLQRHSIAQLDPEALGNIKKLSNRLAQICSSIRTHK
UniProt Q5VVJ2: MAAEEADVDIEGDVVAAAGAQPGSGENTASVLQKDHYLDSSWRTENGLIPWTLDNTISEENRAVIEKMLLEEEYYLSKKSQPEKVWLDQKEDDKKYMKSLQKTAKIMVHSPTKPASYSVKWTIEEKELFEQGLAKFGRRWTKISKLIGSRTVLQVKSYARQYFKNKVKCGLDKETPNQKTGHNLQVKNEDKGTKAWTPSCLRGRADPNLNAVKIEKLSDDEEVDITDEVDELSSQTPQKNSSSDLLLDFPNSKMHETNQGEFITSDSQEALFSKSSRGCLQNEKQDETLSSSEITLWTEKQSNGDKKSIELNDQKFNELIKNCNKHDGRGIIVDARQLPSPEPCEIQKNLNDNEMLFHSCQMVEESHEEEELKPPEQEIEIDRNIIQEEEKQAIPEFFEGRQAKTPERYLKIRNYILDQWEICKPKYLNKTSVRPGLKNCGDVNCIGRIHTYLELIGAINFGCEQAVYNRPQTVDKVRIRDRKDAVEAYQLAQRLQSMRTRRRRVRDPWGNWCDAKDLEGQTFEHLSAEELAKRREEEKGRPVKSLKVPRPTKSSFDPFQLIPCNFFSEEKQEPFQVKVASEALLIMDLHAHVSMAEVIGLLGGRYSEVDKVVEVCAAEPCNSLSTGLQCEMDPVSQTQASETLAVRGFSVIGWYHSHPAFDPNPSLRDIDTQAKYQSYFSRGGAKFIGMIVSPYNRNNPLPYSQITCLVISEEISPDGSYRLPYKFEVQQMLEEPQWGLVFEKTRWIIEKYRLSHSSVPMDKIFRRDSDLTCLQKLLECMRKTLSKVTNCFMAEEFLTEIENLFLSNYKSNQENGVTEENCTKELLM
UniProt Q659C4: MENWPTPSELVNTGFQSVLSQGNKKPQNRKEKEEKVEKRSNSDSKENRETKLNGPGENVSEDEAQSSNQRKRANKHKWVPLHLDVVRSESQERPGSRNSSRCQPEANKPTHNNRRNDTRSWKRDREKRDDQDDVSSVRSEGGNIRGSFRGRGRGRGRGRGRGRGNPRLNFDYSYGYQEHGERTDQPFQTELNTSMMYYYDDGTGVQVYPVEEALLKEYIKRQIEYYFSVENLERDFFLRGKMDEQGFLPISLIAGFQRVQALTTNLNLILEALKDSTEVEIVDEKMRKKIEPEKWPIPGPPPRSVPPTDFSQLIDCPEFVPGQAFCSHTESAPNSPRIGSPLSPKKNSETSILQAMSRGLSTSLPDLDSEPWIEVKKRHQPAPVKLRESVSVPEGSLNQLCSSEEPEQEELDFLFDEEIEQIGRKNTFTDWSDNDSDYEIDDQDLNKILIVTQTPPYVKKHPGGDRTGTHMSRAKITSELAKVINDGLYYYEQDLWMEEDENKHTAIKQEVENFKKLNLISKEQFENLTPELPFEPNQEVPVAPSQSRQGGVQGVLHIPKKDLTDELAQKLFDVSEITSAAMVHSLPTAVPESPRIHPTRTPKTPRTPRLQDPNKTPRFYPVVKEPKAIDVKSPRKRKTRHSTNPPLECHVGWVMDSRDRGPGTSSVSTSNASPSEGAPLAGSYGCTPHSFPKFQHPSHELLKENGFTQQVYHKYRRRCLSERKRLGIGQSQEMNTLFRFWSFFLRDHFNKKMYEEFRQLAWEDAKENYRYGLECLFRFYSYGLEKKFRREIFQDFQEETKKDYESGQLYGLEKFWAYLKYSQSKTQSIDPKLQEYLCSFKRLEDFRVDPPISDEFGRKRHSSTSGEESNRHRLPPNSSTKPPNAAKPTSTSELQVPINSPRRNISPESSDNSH
UniProt Q5JTZ9, whole entry: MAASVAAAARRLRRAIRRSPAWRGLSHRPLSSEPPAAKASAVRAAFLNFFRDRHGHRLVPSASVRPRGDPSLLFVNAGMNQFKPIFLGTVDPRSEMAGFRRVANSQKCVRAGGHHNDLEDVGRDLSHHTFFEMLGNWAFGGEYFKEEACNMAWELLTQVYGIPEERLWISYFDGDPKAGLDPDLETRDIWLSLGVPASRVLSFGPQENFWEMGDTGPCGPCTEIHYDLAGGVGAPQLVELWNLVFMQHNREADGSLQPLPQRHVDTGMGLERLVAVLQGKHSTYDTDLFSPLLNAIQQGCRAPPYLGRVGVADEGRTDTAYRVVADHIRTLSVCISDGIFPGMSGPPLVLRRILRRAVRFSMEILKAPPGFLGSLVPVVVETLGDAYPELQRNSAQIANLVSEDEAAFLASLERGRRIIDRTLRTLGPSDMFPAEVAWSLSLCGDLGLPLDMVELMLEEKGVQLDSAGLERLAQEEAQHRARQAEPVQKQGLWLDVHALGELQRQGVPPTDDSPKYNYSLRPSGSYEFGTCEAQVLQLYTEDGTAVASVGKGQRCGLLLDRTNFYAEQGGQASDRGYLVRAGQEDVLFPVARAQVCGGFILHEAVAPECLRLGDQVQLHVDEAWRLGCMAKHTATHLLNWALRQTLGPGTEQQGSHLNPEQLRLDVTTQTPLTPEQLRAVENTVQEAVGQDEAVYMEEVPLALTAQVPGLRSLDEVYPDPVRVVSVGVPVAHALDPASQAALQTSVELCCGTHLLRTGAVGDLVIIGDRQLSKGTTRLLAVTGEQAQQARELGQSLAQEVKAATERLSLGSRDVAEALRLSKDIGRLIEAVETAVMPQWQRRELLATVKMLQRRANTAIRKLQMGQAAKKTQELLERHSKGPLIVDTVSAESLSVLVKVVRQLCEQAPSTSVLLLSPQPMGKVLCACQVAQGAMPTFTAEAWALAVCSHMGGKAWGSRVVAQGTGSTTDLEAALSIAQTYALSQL
UniProt Q6IA86: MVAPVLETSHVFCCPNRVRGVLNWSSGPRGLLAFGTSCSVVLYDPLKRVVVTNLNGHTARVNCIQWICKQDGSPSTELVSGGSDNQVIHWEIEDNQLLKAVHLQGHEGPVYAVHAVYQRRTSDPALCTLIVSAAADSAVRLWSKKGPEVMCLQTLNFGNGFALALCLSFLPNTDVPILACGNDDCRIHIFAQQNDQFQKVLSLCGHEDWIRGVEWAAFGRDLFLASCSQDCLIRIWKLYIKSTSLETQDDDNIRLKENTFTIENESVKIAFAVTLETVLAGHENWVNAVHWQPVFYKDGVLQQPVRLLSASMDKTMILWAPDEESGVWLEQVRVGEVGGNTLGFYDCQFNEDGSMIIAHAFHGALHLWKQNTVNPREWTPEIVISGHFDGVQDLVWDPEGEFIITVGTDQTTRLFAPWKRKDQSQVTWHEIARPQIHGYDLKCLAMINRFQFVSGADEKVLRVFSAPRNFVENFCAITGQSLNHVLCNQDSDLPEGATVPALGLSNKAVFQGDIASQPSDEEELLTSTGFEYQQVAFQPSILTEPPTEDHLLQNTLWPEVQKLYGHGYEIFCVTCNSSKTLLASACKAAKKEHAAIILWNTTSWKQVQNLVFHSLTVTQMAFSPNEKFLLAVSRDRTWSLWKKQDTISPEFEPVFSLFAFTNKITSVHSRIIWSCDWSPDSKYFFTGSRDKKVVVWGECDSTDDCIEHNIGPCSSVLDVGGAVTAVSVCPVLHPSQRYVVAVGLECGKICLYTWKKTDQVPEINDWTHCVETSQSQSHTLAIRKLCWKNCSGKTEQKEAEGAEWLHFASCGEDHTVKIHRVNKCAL

Compound: Nc1ncnc2c1ncn2[C@@H]1O[C@H](COP(=O)(O)OP(=O)(O)OP(=O)(O)O)[C@@H](O)[C@H]1O [adenosine triphosphate]
Experiment: NP40-soluble protein abundance relative to vehicle (solubility fold change) (ratio); higher = more soluble protein in presence of ATP
Summary of the method: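 Crude Jurkat lysate, prepared by Dounce homogenisation, was exposed to eight concentrations from 0.1 to 10 mM for 10 min at room temperature and then 3 min at 37 °C. Solubilisation used 0.8% NP40 with benzonase for 60 min at 4 °C, followed by ultracentrifugation and TMT labelling of the supernatant for LC-MS/MS. After vsn normalisation of intensities, each value is the fold change against the detergent-processed vehicle within each replicate, across three independent experiments.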

Target: UniProt Q5T0D9 and related entries
- NP40-soluble protein abundance (concentration: 1mM): 1.09 ± 0.1
- NP40-soluble protein abundance (concentration: 2mM): 0.967 ± 0.092
- NP40-soluble protein abundance (concentration: 4mM): 1.06 ± 0.077
- NP40-soluble protein abundance (concentration: 6mM): 0.982 ± 0.2
- NP40-soluble protein abundance (concentration: 8mM): 1.05 ± 0.15
- NP40-soluble protein abundance (concentration: 10mM): 1.05 ± 0.018

Target: UniProt Q6P2H3 and related entries
- NP40-soluble protein abundance (concentration: 1mM): 0.962 ± 0.047
- NP40-soluble protein abundance (concentration: 2mM): 0.933 ± 0.045
- NP40-soluble protein abundance (concentration: 4mM): 0.964 ± 0.044
- NP40-soluble protein abundance (concentration: 6mM): 1.01 ± 0.095
- NP40-soluble protein abundance (concentration: 8mM): 1.01 ± 0.047
- NP40-soluble protein abundance (concentration: 10mM): 1.04 ± 0.017

Target: UniProt Q5TEU4 and related entries
- NP40-soluble protein abundance (concentration: 1mM): 1.041 ± 0.0052
- NP40-soluble protein abundance (concentration: 2mM): 1.06 ± 0.028
- NP40-soluble protein abundance (concentration: 4mM): 1.019 ± 0.0085
- NP40-soluble protein abundance (concentration: 6mM): 0.982 ± 0.034
- NP40-soluble protein abundance (concentration: 8mM): 0.999 ± 0.034
- NP40-soluble protein abundance (concentration: 10mM): 1.022 ± 0.0042

Target: SAMD9 (UniProt Q5K651)
- NP40-soluble protein abundance (concentration: 1mM): 1.03 ± 0.11
- NP40-soluble protein abundance (concentration: 2mM): 1.02 ± 0.093
- NP40-soluble protein abundance (concentration: 4mM): 1.01 ± 0.093
- NP40-soluble protein abundance (concentration: 6mM): 0.981 ± 0.11
- NP40-soluble protein abundance (concentration: 8mM): 1.05 ± 0.073
- NP40-soluble protein abundance (concentration: 10mM): 1 ± 0.056

Target: UniProt Q6P1R4 and related entries
- NP40-soluble protein abundance (concentration: 1mM): 1.04 ± 0.033
- NP40-soluble protein abundance (concentration: 2mM): 1.02 ± 0.016
- NP40-soluble protein abundance (concentration: 4mM): 1.03 ± 0.016
- NP40-soluble protein abundance (concentration: 6mM): 1 ± 0.034
- NP40-soluble protein abundance (concentration: 8mM): 0.98 ± 0.023
- NP40-soluble protein abundance (concentration: 10mM): 0.999 ± 0.034

Target: SFXN4 (UniProt Q6P4A7)
- NP40-soluble protein abundance (concentration: 1mM): 1.08 ± 0.083
- NP40-soluble protein abundance (concentration: 2mM): 0.976 ± 0.045
- NP40-soluble protein abundance (concentration: 4mM): 1.06 ± 0.059
- NP40-soluble protein abundance (concentration: 6mM): 1.04 ± 0.12
- NP40-soluble protein abundance (concentration: 8mM): 1.03 ± 0.02
- NP40-soluble protein abundance (concentration: 10mM): 0.988 ± 0.13

Target: UniProt Q6IQ49 and related entries
- NP40-soluble protein abundance (concentration: 1mM): 0.931 ± 0.034
- NP40-soluble protein abundance (concentration: 2mM): 0.933 ± 0.022
- NP40-soluble protein abundance (concentration: 4mM): 0.931 ± 0.028
- NP40-soluble protein abundance (concentration: 6mM): 0.973 ± 0.025
- NP40-soluble protein abundance (concentration: 8mM): 0.942 ± 0.021
- NP40-soluble protein abundance (concentration: 10mM): 0.94 ± 0.027

Target: UniProt Q4VC05 and related entries
- NP40-soluble protein abundance (concentration: 1mM): 0.888 ± 0.15
- NP40-soluble protein abundance (concentration: 2mM): 0.878 ± 0.12
- NP40-soluble protein abundance (concentration: 4mM): 0.791 ± 0.029
- NP40-soluble protein abundance (concentration: 6mM): 0.93 ± 0.15
- NP40-soluble protein abundance (concentration: 8mM): 0.787 ± 0.038
- NP40-soluble protein abundance (concentration: 10mM): 0.827 ± 0.13

Target: RETSAT (UniProt Q6NUM9)
- NP40-soluble protein abundance (concentration: 1mM): 0.943 ± 0.11
- NP40-soluble protein abundance (concentration: 2mM): 0.945 ± 0.1
- NP40-soluble protein abundance (concentration: 4mM): 0.953 ± 0.048
- NP40-soluble protein abundance (concentration: 6mM): 0.869 ± 0.14
- NP40-soluble protein abundance (concentration: 8mM): 0.964 ± 0.097
- NP40-soluble protein abundance (concentration: 10mM): 0.92 ± 0.098

Target: HP1BP3 (UniProt Q5SSJ5)
- NP40-soluble protein abundance (concentration: 1mM): 0.989 ± 0.065
- NP40-soluble protein abundance (concentration: 2mM): 1.04 ± 0.04
- NP40-soluble protein abundance (concentration: 4mM): 1.08 ± 0.051
- NP40-soluble protein abundance (concentration: 6mM): 1.2 ± 0.11
- NP40-soluble protein abundance (concentration: 8mM): 1.18 ± 0.025
- NP40-soluble protein abundance (concentration: 10mM): 1.42 ± 0.058

Target: MED27 (UniProt Q6P2C8)
- NP40-soluble protein abundance (concentration: 1mM): 1.01 ± 0.066
- NP40-soluble protein abundance (concentration: 2mM): 1.01 ± 0.16
- NP40-soluble protein abundance (concentration: 4mM): 0.936 ± 0.15
- NP40-soluble protein abundance (concentration: 6mM): 0.988 ± 0.15
- NP40-soluble protein abundance (concentration: 8mM): 1 ± 0.17
- NP40-soluble protein abundance (concentration: 10mM): 0.991 ± 0.096

Target: Q5TH58 and related entries (UniProt Q9H6K1)
- NP40-soluble protein abundance (concentration: 1mM): 0.972 ± 0.039
- NP40-soluble protein abundance (concentration: 2mM): 0.981 ± 0.065
- NP40-soluble protein abundance (concentration: 4mM): 1.09 ± 0.027
- NP40-soluble protein abundance (concentration: 6mM): 1.02 ± 0.12
- NP40-soluble protein abundance (concentration: 8mM): 0.977 ± 0.04
- NP40-soluble protein abundance (concentration: 10mM): 0.985 ± 0.092

Target: UniProt Q6P2P2
- NP40-soluble protein abundance (concentration: 1mM): 1.02 ± 0.079
- NP40-soluble protein abundance (concentration: 2mM): 1.03 ± 0.096
- NP40-soluble protein abundance (concentration: 4mM): 1 ± 0.079
- NP40-soluble protein abundance (concentration: 6mM): 0.977 ± 0.11
- NP40-soluble protein abundance (concentration: 8mM): 0.999 ± 0.066
- NP40-soluble protein abundance (concentration: 10mM): 0.997 ± 0.075

Target: UniProt Q5T3J3
- NP40-soluble protein abundance (concentration: 1mM): 1.01 ± 0.034
- NP40-soluble protein abundance (concentration: 2mM): 1.13 ± 0.098
- NP40-soluble protein abundance (concentration: 4mM): 1.22 ± 0.051
- NP40-soluble protein abundance (concentration: 6mM): 1.28 ± 0.095
- NP40-soluble protein abundance (concentration: 8mM): 1.3 ± 0.045
- NP40-soluble protein abundance (concentration: 10mM): 1.31 ± 0.06

Target: WDR73 (UniProt Q6P4I2)
- NP40-soluble protein abundance (concentration: 1mM): 1.03 ± 0.1
- NP40-soluble protein abundance (concentration: 2mM): 1 ± 0.063
- NP40-soluble protein abundance (concentration: 4mM): 1.02 ± 0.047
- NP40-soluble protein abundance (concentration: 6mM): 0.985 ± 0.1
- NP40-soluble protein abundance (concentration: 8mM): 1.02 ± 0.081
- NP40-soluble protein abundance (concentration: 10mM): 0.987 ± 0.054

Target: CDCA8 (UniProt Q53HL2)
- NP40-soluble protein abundance (concentration: 1mM): 1.07 ± 0.093
- NP40-soluble protein abundance (concentration: 2mM): 1.04 ± 0.13
- NP40-soluble protein abundance (concentration: 4mM): 1.16 ± 0.18
- NP40-soluble protein abundance (concentration: 6mM): 1.13 ± 0.29
- NP40-soluble protein abundance (concentration: 8mM): 1.17 ± 0.28
- NP40-soluble protein abundance (concentration: 10mM): 1.29 ± 0.33

Target: MYSM1 (UniProt Q5VVJ2)
- NP40-soluble protein abundance (concentration: 1mM): 0.9711 ± 0.0075
- NP40-soluble protein abundance (concentration: 2mM): 0.979 ± 0.041
- NP40-soluble protein abundance (concentration: 4mM): 0.991 ± 0.037
- NP40-soluble protein abundance (concentration: 6mM): 0.958 ± 0.055
- NP40-soluble protein abundance (concentration: 8mM): 0.97 ± 0.061
- NP40-soluble protein abundance (concentration: 10mM): 0.943 ± 0.039

Target: LARP2 (UniProt Q659C4)
- NP40-soluble protein abundance (concentration: 1mM): 1.08 ± 0.17
- NP40-soluble protein abundance (concentration: 2mM): 1.04 ± 0.22
- NP40-soluble protein abundance (concentration: 4mM): 1.1 ± 0.23
- NP40-soluble protein abundance (concentration: 6mM): 1.07 ± 0.17
- NP40-soluble protein abundance (concentration: 8mM): 1.05 ± 0.28
- NP40-soluble protein abundance (concentration: 10mM): 1.09 ± 0.21

Target: UniProt Q5T011 and related entries
- NP40-soluble protein abundance (concentration: 1mM): 0.976 ± 0.053
- NP40-soluble protein abundance (concentration: 2mM): 0.986 ± 0.17
- NP40-soluble protein abundance (concentration: 4mM): 0.843 ± 0.038
- NP40-soluble protein abundance (concentration: 6mM): 1.05 ± 0.13
- NP40-soluble protein abundance (concentration: 8mM): 1.01 ± 0.19
- NP40-soluble protein abundance (concentration: 10mM): 1.06 ± 0.066

Target: RINT1 (UniProt Q6NUQ1)
- NP40-soluble protein abundance (concentration: 1mM): 1.02 ± 0.091
- NP40-soluble protein abundance (concentration: 2mM): 0.983 ± 0.06
- NP40-soluble protein abundance (concentration: 4mM): 0.956 ± 0.086
- NP40-soluble protein abundance (concentration: 6mM): 0.971 ± 0.1
- NP40-soluble protein abundance (concentration: 8mM): 0.995 ± 0.045
- NP40-soluble protein abundance (concentration: 10mM): 0.98 ± 0.079

Target: FAM91A1 (UniProt Q658Y4)
- NP40-soluble protein abundance (concentration: 1mM): 1.04 ± 0.066
- NP40-soluble protein abundance (concentration: 2mM): 1.03 ± 0.027
- NP40-soluble protein abundance (concentration: 4mM): 1.072 ± 0.0036
- NP40-soluble protein abundance (concentration: 6mM): 1.045 ± 0.0063
- NP40-soluble protein abundance (concentration: 8mM): 1.13 ± 0.024
- NP40-soluble protein abundance (concentration: 10mM): 1.11 ± 0.032

Target: AARS2 (UniProt Q5JTZ9)
- NP40-soluble protein abundance (concentration: 1mM): 1.02 ± 0.046
- NP40-soluble protein abundance (concentration: 2mM): 1.03 ± 0.04
- NP40-soluble protein abundance (concentration: 4mM): 1.03 ± 0.051
- NP40-soluble protein abundance (concentration: 6mM): 0.981 ± 0.063
- NP40-soluble protein abundance (concentration: 8mM): 1.01 ± 0.049
- NP40-soluble protein abundance (concentration: 10mM): 1.02 ± 0.044

Target: UniProt Q6IA86 and related entries
- NP40-soluble protein abundance (concentration: 1mM): 1.09 ± 0.17
- NP40-soluble protein abundance (concentration: 2mM): 1.07 ± 0.078
- NP40-soluble protein abundance (concentration: 4mM): 1.06 ± 0.087
- NP40-soluble protein abundance (concentration: 6mM): 0.971 ± 0.052
- NP40-soluble protein abundance (concentration: 8mM): 1.05 ± 0.051
- NP40-soluble protein abundance (concentration: 10mM): 1.04 ± 0.067
